From article PMC10908623, “X-ray structure and characterization of a probiotic Lactobacillus rhamnosus Probio-M9 L-rhamnose isomerase” (Applied Microbiology and Biotechnology, 2024)
These are yes or no findings as the source states them, for the method shown. Some entries that bind do so weakly or less than the wild type.

Biological target: L-rhamnose isomerase from Lactobacillus rhamnosus Probio-M9 (Lactobacillus rhamnosus Probio-M9)
Assay: crystal structure; sitting-drop vapor diffusion at 20 C, 0.1 M MES pH 6.5, 15% PEG550MME; LrL-RhI alone and crystals soaked in 30% (w/v) L-rhamnose, D-allulose or D-allose; space group P212121, four molecules in the asymmetric unit; both purified

B1: L-rhamnose isomerase from Lactobacillus rhamnosus Probio-M9 (enzyme, UniProt A0A171J5T1 1-426, looked up)
chain: MVKPEEVDKAYEVAKQRYAEIGVDTDAAMKELEKVPLSVHCWQGDDIHGFLFPNQELTGGIGVSGNYPGIARTPDELAGDMHEALSLIPGKHRVQLHAIYAVTDKKRDLDTLEPEDFDYWIDWAKQEGVGLDFNGTFFSHPMVKDNMTVSSPDPKVRDFWIRHGKISREISNYIGEKLGSQVVNNFWFPDGFKDNPIDKKTPRLRLLKALDEIIKDPLPEKNTIESFEGKLFGTGIESYTTGSHEFYQNYAISRNKLWTIDAGHFHPTEDVSDKFSAFFPFGKGLFMHVSRPVRWDSDHVVIMDDALIRITRSLVRDGYLDRTHIGLDFFDATINRVAAWVVGARATQKSLLQAMLAPIDQLKKDELNADFTTRLIETEELKSFPFGAVWDKFCQDHNTPVGFDWMNNIHQYEKDVQFKRDAKLVH
notes: L-rhamnose isomerase (putative LrL-RhI) of Lactobacillus rhamnosus Probio-M9, 426 amino acid residues, 48707 Da; also called LrL-RhI; L-RhI; not shown: His-tag, C-terminal, kept
- binding: binds
